# This is one part of the list.
# B1: YghJ (Escherichia coli), E3PJ90 (protein)
# chain: MNKKFKYKKSLLAAILSATLLAGCDGGGSGSSSDTPPVDSGTGSLPEVKPDPTPNPEPTPEPTPDPEPTPEPIPDPEPTPEPEPEPVPTKTGYLTLGGSQRVTGATCNGESSDGFTFKPGEDVTCVAGNTTIATFNTQSEAARSLRAVEKVSFSLEDAQELAGSDDKKSNAVSLVTSSNSCPANTEQVCLTFSSVIESKRFDSLYKQIDLAPEEFKKLVNEEVENNAATDKAPSTHTSPVVPVTTPGTKPDLNASFVSANAEQFYQYQPTEIILSEGRLVDSQGYGVAGVNYYTNSGRGVTGENGEFSFSWGEAISFGIDTFELGSVRGNKSTIALTELGDEVRGANIDQLIHRYSTTGQNNTRVVPDDVRKVFAEYPNVINEIINLSLSNGATLGEGEQVVNLPNEFIEQFNTGQAKEIDTAICAKTDGCNEARWFSLTTRNVNDGQIQGVINKLWGVDTNYKSVSKFHVFHDSTNFYGSTGNARGQAVVNISNAAFPILMARNDKNYWLAFGEKRAWDKNELAYITEAPSIVRPENVTRETASFNLPFISLGQVGDGKLMVIGNPHYNSILRCPNGYSWNGGVNKDGQCTLNSDPDDMKNFMENVLRYLSNDRWLPDAKSSMTVGTNLETVYFKKHGQVLGNSAPFAFHKDFTGITVKPMTSYGNLNPDEVPLLILNGFEYVTQWGSDPYSIPLRADTSKPKLTQQDVTDLIAYMNKGGSVLIMENVMSNLKEESASGFVRLLDAAGLSMALNKSVVNNDPQGYPDRVRQRRSTPIWVYERYPAVDGKPPYTIDDTTKEVIWKYQQENKPDDKPKLEVASWQEEVEGKQVTQFAFIDEADHKTPESLAAAKQRILDAFPGLEVCKDSDYHYEVNCLEYRPGTDVPVTGGMYVPQYTQLDLSADTAKAMLQAADLGTNIQRLYQHELYFRTNGRQGERLNSVDLERLYQNMSVWLWNETKYRYEEGKEDELGFKTFTEFLNCYTNNAYVGTQCSAELKKSLIDNKMIYGEESSKAGMMNPSYPLNYMEKPLTRLMLGRSWWDLNIKVDVEKYPGVVNTNGETVTQNINLYSAPTKWFAGNMQSTGLWAPAQQEVSIESKSTVPVTVTVALADDLTGREKHEVSLNRPPRVTKTYDLKANDKVTFKVPYGGLIYIKGDSKEVQSADFTFTGVVKAPFYKDGKWQHDLNSPAPLGELESASFVYTTPKKNLNASNYTGGLEQFANDLDTFASSMNDFYGRDSEDGKHRMFTYKNLPGHKHRFANDVQISIGDAHSGYPVMNSSFSPNSTTLPTTPLNDWLIWHEVGHNAAETPLTVPGATEVANNVLALYMQDRYLGKMNRVADDITVAPEYLEESNGQAWARGGAGDRLLMYAQLKEWAEKNFDIKKWYPDGTPLPEFYSEREGMKGWNLFQLMHRKARGDEVSNDKFGGKNYCAESNGNAADTLMLCASWVAQTDLSEFFKKWNPGANAYQLPGASEMSFEGGVSQSAYNTLASLDLPKPEQGPETINQVTEHKMSAE
# Tests used:
# Assay in all cases: glycan array binding signal (z-score within array); higher = stronger binding
# Settings in all cases: glycan notation: IUPAC condensed, linker removed
# [1] = molecular target: GalNAc(b1-4)GlcNAc(b1-2)Man
# How it was run: (§1)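 Arrays were curated from the Consortium for Functional Glycomics database, 3228 in total, and kept only where the protein sequence was available. Binding is expressed as a within-array Z-score. This score was averaged across arrays of the same protein sequence at different concentrations or buffers and across linkers, and negative values can be read as non-binding.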
# [2] = molecular target: GalNAc(b1-4)GlcNAc(b1-2)Man(a1-3)[GalNAc(b1-4)GlcNAc(b1-2)Man(a1-6)]Man(b1-4)GlcNAc(b1-4)GlcNAc
# How it was run: as §1
# [3] = molecular target: GalNAc(b1-4)GlcNAc(b1-3)GalNAc(b1-4)GlcNAc
# How it was run: as §1
# GalNAc(b1-4)GlcNAc6S = molecular target: GalNAc(b1-4)GlcNAc6S
# How it was run: as §1
# GalNAc(b1-6)GalNAc = molecular target: GalNAc(b1-6)GalNAc
# How it was run: as §1
# GalNAc3S(b1-4)GlcNAc = molecular target: GalNAc3S(b1-4)GlcNAc
# How it was run: as §1
# GalNAc3S(b1-4)GlcNAc3S = molecular target: GalNAc3S(b1-4)GlcNAc3S
# How it was run: as §1
# [4] = molecular target: GalNAc3S(b1-4)[Fuc(a1-3)]GlcNAc
# How it was run: as §1
# GalNAc4S6S(b1-4)GlcNAc = molecular target: GalNAc4S6S(b1-4)GlcNAc
# How it was run: as §1
# GalNAc6S(b1-4)GlcNAc = molecular target: GalNAc6S(b1-4)GlcNAc
# How it was run: as §1
# Glc(a1-4)Glc = molecular target: Glc(a1-4)Glc
# How it was run: as §1
# [5] = molecular target: Glc(a1-4)Glc(a1-4)Glc(a1-4)Glc
# How it was run: as §1
# Glc(a1-6)Glc(a1-6)Glc = molecular target: Glc(a1-6)Glc(a1-6)Glc
# How it was run: as §1
# [6] = molecular target: Glc(a1-6)Glc(a1-6)Glc(a1-6)Glc
# How it was run: as §1
# Glc(b1-4)Glc = molecular target: Glc(b1-4)Glc
# How it was run: as §1
# Glc(b1-6)Glc = molecular target: Glc(b1-6)Glc
# How it was run: as §1
# GlcA(b1-3)Gal = molecular target: GlcA(b1-3)Gal
# How it was run: as §1
# GlcA(b1-3)GlcNAc = molecular target: GlcA(b1-3)GlcNAc
# How it was run: as §1
# GlcA(b1-6)Gal = molecular target: GlcA(b1-6)Gal
# How it was run: as §1
# [7] = molecular target: GlcA3S(b1-3)Gal(b1-4)GlcNAc(b1-2)Man
# How it was run: as §1
# [8] = molecular target: GlcA3S(b1-3)Gal(b1-4)GlcNAc(b1-3)Gal(b1-4)Glc
# How it was run: as §1
# [9] = molecular target: GlcNAc(a1-3)Gal(b1-4)GlcNAc
# How it was run: as §1
# [10] = molecular target: GlcNAc(a1-4)Gal(b1-3)GlcNAc
# How it was run: as §1
# [11] = molecular target: GlcNAc(a1-4)Gal(b1-4)GalNAc
# How it was run: as §1
# [12] = molecular target: GlcNAc(a1-4)Gal(b1-4)GlcNAc
# How it was run: as §1
# [13] = molecular target: GlcNAc(a1-4)Gal(b1-4)GlcNAc(b1-3)Gal(b1-4)Glc
# How it was run: as §1
# [14] = molecular target: GlcNAc(a1-4)Gal(b1-4)GlcNAc(b1-3)Gal(b1-4)GlcNAc
# How it was run: as §1
# [15] = molecular target: GlcNAc(a1-4)Gal(b1-4)GlcNAc(b1-3)Gal(b1-4)GlcNAc(b1-3)Gal(b1-4)GlcNAc
# How it was run: as §1
# [16] = molecular target: GlcNAc(a1-4)Gal(b1-4)GlcNAc(b1-3)Gal(b1-4)[Fuc(a1-3)]GlcNAc(b1-3)Gal(b1-4)[Fuc(a1-3)]GlcNAc
# How it was run: as §1
# [17] = molecular target: GlcNAc(a1-6)Gal(b1-4)GlcNAc
# How it was run: as §1
# [18] = molecular target: GlcNAc(b1-2)Gal(b1-3)GalNAc
# How it was run: as §1
# [19] = molecular target: GlcNAc(b1-2)Man(a1-3)[GlcNAc(b1-2)Man(a1-6)]Man(b1-4)GlcNAc(b1-4)GlcNAc
# How it was run: as §1
# [20] = molecular target: GlcNAc(b1-2)Man(a1-3)[GlcNAc(b1-2)Man(a1-6)]Man(b1-4)GlcNAc(b1-4)[Fuc(a1-6)]GlcNAc
# How it was run: as §1
# [21] = molecular target: GlcNAc(b1-2)Man(a1-3)[GlcNAc(b1-4)][GlcNAc(b1-2)Man(a1-6)]Man(b1-4)GlcNAc(b1-4)GlcNAc
# How it was run: as §1
# [22] = molecular target: GlcNAc(b1-2)Man(a1-3)[GlcNAc(b1-4)][GlcNAc(b1-2)Man(a1-6)]Man(b1-4)GlcNAc(b1-4)[Fuc(a1-6)]GlcNAc
# How it was run: as §1
# [23] = molecular target: GlcNAc(b1-2)[GlcNAc(b1-4)]Man(a1-3)[GlcNAc(b1-2)Man(a1-6)]Man(b1-4)GlcNAc(b1-4)GlcNAc
# How it was run: as §1
# [24] = molecular target: GlcNAc(b1-2)[GlcNAc(b1-4)]Man(a1-3)[GlcNAc(b1-4)][GlcNAc(b1-2)Man(a1-6)]Man(b1-4)GlcNAc(b1-4)GlcNAc
# How it was run: as §1
# [25] = molecular target: GlcNAc(b1-2)[GlcNAc(b1-4)]Man(a1-3)[GlcNAc(b1-4)][GlcNAc(b1-2)[GlcNAc(b1-6)]Man(a1-6)]Man(b1-4)GlcNAc(b1-4)GlcNAc
# How it was run: as §1
# [26] = molecular target: GlcNAc(b1-2)[GlcNAc(b1-4)]Man(a1-3)[GlcNAc(b1-4)][GlcNAc(b1-2)[GlcNAc(b1-6)]Man(a1-6)]Man(b1-4)GlcNAc(b1-4)[Fuc(a1-6)]GlcNAc
# How it was run: as §1
# [27] = molecular target: GlcNAc(b1-2)[GlcNAc(b1-6)]Man(a1-6)[GlcNAc(b1-2)Man(a1-3)]Man(b1-4)GlcNAc(b1-4)GlcNAc
# How it was run: as §1
# [28] = molecular target: GlcNAc(b1-2)[GlcNAc(b1-6)]Man(a1-6)[GlcNAc(b1-2)Man(a1-3)]Man(b1-4)GlcNAc(b1-4)[Fuc(a1-6)]GlcNAc
# How it was run: as §1
# [29] = molecular target: GlcNAc(b1-2)[GlcNAc(b1-6)]Man(a1-6)[GlcNAc(b1-4)][GlcNAc(b1-2)Man(a1-3)]Man(b1-4)GlcNAc(b1-4)GlcNAc
# How it was run: as §1
# GlcNAc(b1-3)Fuc = molecular target: GlcNAc(b1-3)Fuc
# How it was run: as §1
# GlcNAc(b1-3)Gal = molecular target: GlcNAc(b1-3)Gal
# How it was run: as §1
# [30] = molecular target: GlcNAc(b1-3)Gal(b1-3)GalNAc
# How it was run: as §1
binder,measurement,setting,value
B1,glycan array binding signal (z-score),[1],0.931
same,glycan array binding signal (z-score),[2],-0.678
same,glycan array binding signal (z-score),[3],-1.25
same,glycan array binding signal (z-score),GalNAc(b1-4)GlcNAc6S,0.943
same,glycan array binding signal (z-score),GalNAc(b1-6)GalNAc,0.476
same,glycan array binding signal (z-score),GalNAc3S(b1-4)GlcNAc,-0.046
same,glycan array binding signal (z-score),GalNAc3S(b1-4)GlcNAc3S,0.646
same,glycan array binding signal (z-score),[4],-1.21
same,glycan array binding signal (z-score),GalNAc4S6S(b1-4)GlcNAc,0.652
same,glycan array binding signal (z-score),GalNAc6S(b1-4)GlcNAc,-0.921
same,glycan array binding signal (z-score),Glc(a1-4)Glc,0.052
same,glycan array binding signal (z-score),[5],-0.083
same,glycan array binding signal (z-score),Glc(a1-6)Glc(a1-6)Glc,0.381
same,glycan array binding signal (z-score),[6],-0.108
same,glycan array binding signal (z-score),Glc(b1-4)Glc,0.009
same,glycan array binding signal (z-score),Glc(b1-6)Glc,-1.37
same,glycan array binding signal (z-score),GlcA(b1-3)Gal,0.159
same,glycan array binding signal (z-score),GlcA(b1-3)GlcNAc,-0.711
same,glycan array binding signal (z-score),GlcA(b1-6)Gal,-0.477
same,glycan array binding signal (z-score),[7],0.196
same,glycan array binding signal (z-score),[8],-0.029
same,glycan array binding signal (z-score),[9],-0.227
same,glycan array binding signal (z-score),[10],-0.585
same,glycan array binding signal (z-score),[11],0.447
same,glycan array binding signal (z-score),[12],0.005
same,glycan array binding signal (z-score),[13],-1.28
same,glycan array binding signal (z-score),[14],-0.395
same,glycan array binding signal (z-score),[15],-0.709
same,glycan array binding signal (z-score),[16],2.04
same,glycan array binding signal (z-score),[17],-0.394
same,glycan array binding signal (z-score),[18],-0.442
same,glycan array binding signal (z-score),[19],0.16
same,glycan array binding signal (z-score),[20],-0.329
same,glycan array binding signal (z-score),[21],0.504
same,glycan array binding signal (z-score),[22],0.724
same,glycan array binding signal (z-score),[23],-1.8
same,glycan array binding signal (z-score),[24],-1.65
same,glycan array binding signal (z-score),[25],-0.048
same,glycan array binding signal (z-score),[26],-1.05
same,glycan array binding signal (z-score),[27],0.097
same,glycan array binding signal (z-score),[28],0.342
same,glycan array binding signal (z-score),[29],1.29
same,glycan array binding signal (z-score),GlcNAc(b1-3)Fuc,-0.862
same,glycan array binding signal (z-score),GlcNAc(b1-3)Gal,-1.51
same,glycan array binding signal (z-score),[30],-0.197

# For reference, part of the list above.
binder,measurement,setting,value
B1,glycan array binding signal (z-score),[3],-1.25
same,glycan array binding signal (z-score),GalNAc(b1-4)GlcNAc6S,0.943
same,glycan array binding signal (z-score),GalNAc(b1-6)GalNAc,0.476

# From the supplement of paper PMC8728848
